One molecule from PMC11186355 can be followed below.

No constants are given. Whether binding was seen depends on the method and setting. In cells and extracts the contact can be indirect. These calls come from enrichment with a bait or labelling near it, and not all partners need be listed. Tags and fused reporters may be left off the sequences shown.

The experiment deals with T1, SEC31A-TurboID-V5 (UniProt O94979).
T1 sequence: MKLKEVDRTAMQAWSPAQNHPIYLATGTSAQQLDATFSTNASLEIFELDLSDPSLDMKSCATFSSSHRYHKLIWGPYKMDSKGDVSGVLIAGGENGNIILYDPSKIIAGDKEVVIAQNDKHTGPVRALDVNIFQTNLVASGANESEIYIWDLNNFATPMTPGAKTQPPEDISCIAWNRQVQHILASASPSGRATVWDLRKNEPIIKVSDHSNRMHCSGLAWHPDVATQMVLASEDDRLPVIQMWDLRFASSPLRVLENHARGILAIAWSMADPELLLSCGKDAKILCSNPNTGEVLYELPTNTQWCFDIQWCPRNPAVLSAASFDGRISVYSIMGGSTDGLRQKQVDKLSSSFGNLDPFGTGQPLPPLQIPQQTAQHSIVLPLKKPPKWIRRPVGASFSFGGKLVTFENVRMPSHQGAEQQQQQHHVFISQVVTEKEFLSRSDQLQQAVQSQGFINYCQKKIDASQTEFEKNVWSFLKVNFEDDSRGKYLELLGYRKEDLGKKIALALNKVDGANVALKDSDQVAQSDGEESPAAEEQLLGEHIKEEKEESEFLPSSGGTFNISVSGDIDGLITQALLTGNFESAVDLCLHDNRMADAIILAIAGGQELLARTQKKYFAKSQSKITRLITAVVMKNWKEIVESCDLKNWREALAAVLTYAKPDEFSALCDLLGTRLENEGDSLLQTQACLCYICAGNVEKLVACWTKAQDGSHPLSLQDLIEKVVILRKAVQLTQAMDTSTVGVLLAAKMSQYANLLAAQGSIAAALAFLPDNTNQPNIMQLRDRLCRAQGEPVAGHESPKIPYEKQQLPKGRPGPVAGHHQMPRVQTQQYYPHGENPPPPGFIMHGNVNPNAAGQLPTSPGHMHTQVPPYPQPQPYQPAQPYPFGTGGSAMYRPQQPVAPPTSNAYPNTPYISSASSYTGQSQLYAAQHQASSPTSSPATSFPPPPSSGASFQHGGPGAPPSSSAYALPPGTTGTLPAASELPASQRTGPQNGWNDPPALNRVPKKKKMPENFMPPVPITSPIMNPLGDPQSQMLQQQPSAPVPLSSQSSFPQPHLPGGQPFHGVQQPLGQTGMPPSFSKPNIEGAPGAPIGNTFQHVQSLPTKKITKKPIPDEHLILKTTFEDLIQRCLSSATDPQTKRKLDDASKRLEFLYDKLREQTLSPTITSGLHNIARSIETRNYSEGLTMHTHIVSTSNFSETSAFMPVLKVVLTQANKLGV
Nature of the experiment: proximity labelling; SEC31A-TurboID-V5 in HeLa cells, 50 μM biotin for 10 min against no biotin; streptavidin magnetic beads, label-free LC-MS/MS; FC≥4 and p<0.05, n=3.

B1: Syntaxin 5 (STX5) (protein, UniProt Q13190 1-355)
chain: MIPRKRYGSKNTDQGVYLGLSKTQVLSPATAGSSSSDIAPLPPPVTLVPPPPDTMSCRDRTQEFLSACKSLQTRQNGIQTNKPALRAVRQRSEFTLMAKRIGKDLSNTFAKLEKLTILAKRKSLFDDKAVEIEELTYIIKQDINSLNKQIAQLQDFVRAKGSQSGRHLQTHSNTIVVSLQSKLASMSNDFKSVLEVRTENLKQQRSRREQFSRAPVSALPLAPNHLGGGAVVLGAESHASKDVAIDMMDSRTSQQLQLIDEQDSYIQSRADTMQNIESTIVELGSIFQQLAHMVKEQEETIQRIDENVLGAQLDVEAAHSEILKYFQSVTSNRWLMVKIFLILIVFFIIFVVFLA
For the molecule B1, the binding result is recorded as “binds”.
